No constants are given. Whether binding was seen depends on the method and setting. Binding seen in cells or lysates may run through a third protein. A yes stands for co-enrichment or nearness to the bait. Other partners may have been found. Tags and fused reporters may be left off the sequences shown.

For the test, the target named is T1, PRSS22 wild type with C-terminal Flag tag (pcDNA3.1-PRSS22) (human) (UniProt Q9GZN4).
T1 sequence: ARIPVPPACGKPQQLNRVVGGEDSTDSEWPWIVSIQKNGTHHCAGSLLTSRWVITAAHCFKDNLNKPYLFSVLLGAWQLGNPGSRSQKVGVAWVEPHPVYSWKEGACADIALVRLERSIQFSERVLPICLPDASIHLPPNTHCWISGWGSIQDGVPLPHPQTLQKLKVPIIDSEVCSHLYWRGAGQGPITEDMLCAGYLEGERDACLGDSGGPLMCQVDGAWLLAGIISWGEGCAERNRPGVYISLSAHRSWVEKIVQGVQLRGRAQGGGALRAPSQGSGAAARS
Nature of the test: affinity purification with mass spectrometry; 1000 μg total protein of MDA-MB-231 cells transfected with Flag-tagged PRSS22 plasmids, incubated with Flag Tag Immunomagnetic Beads at 4 °C overnight; washed with TBST; SDS-PAGE, silver staining, differential bands analysed by mass spectrometry.

B1: ANXA1 (Annexin A1) (protein, UniProt P04083 1-346)
chain: MAMVSEFLKQAWFIENEEQEYVQTVKSSKGGPGSAVSPYPTFNPSSDVAALHKAIMVKGVDEATIIDILTKRNNAQRQQIKAAYLQETGKPLDETLKKALTGHLEEVVLALLKTPAQFDADELRAAMKGLGTDEDTLIEILASRTNKEIRDINRVYREELKRDLAKDITSDTSGDFRNALLSLAKGDRSEDFGVNEDLADSDARALYEAGERRKGTDVNVFNTILTTRSYPQLRRVFQKYTKYSKHDMNKVLDLELKGDIEKCLTAIVKCATSKPAFFAEKLHQAMKGVGTRHKALIRIMVSRSEIDMNDIKAFYQKMYGISLCQAILDETKGDYEKILVALCGGN
Regarding B1, the binding result is recorded as “binds”.

Values taken from article PMC9681780.
